Measurements taken from the supplement of paper PMC4604168 (melanoma cell lines).
The other results are listed elsewhere or left out. Repeats are few or missing, and single values can be far off.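 The apoptosis fraction was the count of cleaved-PARP antibody-stained nuclei relative to all DNA-stained nuclei, imaged in 1,536-well plates. Screening doses were set so most cells survived, and baseline and induced cleaved-PARP levels vary greatly across cell lines.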

system: COLO829; test: cleaved PARP positive nuclei fraction relative to DMSO control; melanoma cells; higher = more apoptosis; conditions: library dose: low library concentration; 72 h

Structure (SMILES) | cleaved PARP positive nuclei fraction
C[As](C)SC[C@H](NC(=O)CC[C@H](N)C(=O)O)C(=O)NCC(=O)O [Darinaparsin] + COc1ccc(Cl)c(Nc2nc3ccccc3nc2NS(=O)(=O)c2cccc(NC(=O)C(C)(C)N)c2)c1 [XL147] (first compound 0.4 µM, partner dose 0.8 µM) | 98%
COCC[n+]1c2c(n(Cc3cnccn3)c1C)C(=O)c1ccccc1C2=O + O=C(Oc1ccc([N+](=O)[O-])cc1)N1CCC(C(O)(c2ccc3c(c2)OCO3)c2ccc3c(c2)OCO3)CC1 [JZL184] (first compound 0.0004 µM, partner dose 1 µM) | 89.5%
C[As](C)SC[C@H](NC(=O)CC[C@H](N)C(=O)O)C(=O)NCC(=O)O [Darinaparsin] + Oc1cc(-c2nc(-c3ccccc3)[nH]c2-c2ccncc2)ccc1Cl [L779450] (first compound 0.4 µM, partner dose 0.2 µM) | 61.4%
N.N.[Cl][Pt][Cl] [cisplatin] + Oc1cc(-c2nc(-c3ccccc3)[nH]c2-c2ccncc2)ccc1Cl [L779450] (first compound 1.6 µM, partner dose 0.2 µM) | 99.2%
Cc1nc(Nc2ncc(C(=O)Nc3c(C)cccc3Cl)s2)cc(N2CCN(CCO)CC2)n1 [dasatanib] + O=C(Oc1ccc([N+](=O)[O-])cc1)N1CCC(C(O)(c2ccc3c(c2)OCO3)c2ccc3c(c2)OCO3)CC1 [JZL184] (first compound 0.004 µM, partner dose 1 µM) | 220%
CC(=O)O[C@@]12CO[C@@H]1C[C@H](O)[C@@]1(C)C(=O)[C@H](O)C3=C(C)[C@@H](OC(=O)[C@H](O)[C@@H](NC(=O)OC(C)(C)C)c4ccccc4)C[C@@](O)([C@@H](OC(=O)c4ccccc4)[C@H]21)C3(C)C [Docetaxel] + C/C(O)=C(\C#N)C(=O)Nc1cc(Br)ccc1Br [LFM-A13] (first compound 0.0001 µM, partner dose 2 µM) | 405%
C[C@]12O[C@H](C[C@]1(O)CO)n1c3ccccc3c3c4c(c5c6ccccc6n2c5c31)CNC4=O [Lestaurtinib] + Cc1nc(Nc2ncc(C(=O)Nc3c(C)cccc3Cl)s2)cc(N2CCN(CCO)CC2)n1 [dasatanib] (first compound 0.004 µM, partner dose 0.004 µM) | 90.1%
C[C@]12O[C@H](C[C@]1(O)CO)n1c3ccccc3c3c4c(c5c6ccccc6n2c5c31)CNC4=O [Lestaurtinib] + CCc1ccc(CCOc2ccc(CC3SC(=O)NC3=O)cc2)nc1 [pioglitazone] (first compound 0.004 µM, partner dose 2 µM) | 121%
C[As](C)SC[C@H](NC(=O)CC[C@H](N)C(=O)O)C(=O)NCC(=O)O [Darinaparsin] + Cn1cc(/C=C2\C(=O)Nc3cccnc32)c2ccccc21 [GW441756] (first compound 0.4 µM, partner dose 0.4 µM) | 108%
O=C(CCCCCCC(=O)Nc1ccccc1)NO [vorinostat] + O=C(Oc1ccc([N+](=O)[O-])cc1)N1CCC(C(O)(c2ccc3c(c2)OCO3)c2ccc3c(c2)OCO3)CC1 [JZL184] (first compound 0.08 µM, partner dose 1 µM) | 40.6%
C=CCn1c(=O)c2cnc(Nc3ccc(N4CCN(C)CC4)cc3)nc2n1-c1cccc(C(C)(C)O)n1 + C/C(O)=C(\C#N)C(=O)Nc1cc(Br)ccc1Br [LFM-A13] (first compound 0.02 µM, partner dose 2 µM) | 75.6%
Cc1cc(SCc2sc(-c3ccc(C(F)(F)F)c(F)c3)nc2C)ccc1OCC(=O)O + COc1cc2ncnc(Nc3ccc(Oc4ccccc4)cc3)c2cc1OC [SrcI1] (first compound 2 µM, partner dose 2 µM) | 46.7%
Cn1cc(C2=C(c3cn(C4CCN(Cc5ccccn5)CC4)c4ccccc34)C(=O)NC2=O)c2ccccc21 [Enzastaurin] + CC(=O)O[C@@]12CO[C@@H]1C[C@H](O)[C@@]1(C)C(=O)[C@H](O)C3=C(C)[C@@H](OC(=O)[C@H](O)[C@@H](NC(=O)OC(C)(C)C)c4ccccc4)C[C@@](O)([C@@H](OC(=O)c4ccccc4)[C@H]21)C3(C)C [Docetaxel] (first compound 0.8 µM, partner dose 0.0001 µM) | 373%

A stretch of the results above, as a working copy:
Structure (SMILES) | cleaved PARP positive nuclei fraction
Cc1nc(Nc2ncc(C(=O)Nc3c(C)cccc3Cl)s2)cc(N2CCN(CCO)CC2)n1 [dasatanib] + O=C(Oc1ccc([N+](=O)[O-])cc1)N1CCC(C(O)(c2ccc3c(c2)OCO3)c2ccc3c(c2)OCO3)CC1 [JZL184] (first compound 0.004 µM, partner dose 1 µM) | 220%
CC(=O)O[C@@]12CO[C@@H]1C[C@H](O)[C@@]1(C)C(=O)[C@H](O)C3=C(C)[C@@H](OC(=O)[C@H](O)[C@@H](NC(=O)OC(C)(C)C)c4ccccc4)C[C@@](O)([C@@H](OC(=O)c4ccccc4)[C@H]21)C3(C)C [Docetaxel] + C/C(O)=C(\C#N)C(=O)Nc1cc(Br)ccc1Br [LFM-A13] (first compound 0.0001 µM, partner dose 2 µM) | 405%
C[C@]12O[C@H](C[C@]1(O)CO)n1c3ccccc3c3c4c(c5c6ccccc6n2c5c31)CNC4=O [Lestaurtinib] + Cc1nc(Nc2ncc(C(=O)Nc3c(C)cccc3Cl)s2)cc(N2CCN(CCO)CC2)n1 [dasatanib] (first compound 0.004 µM, partner dose 0.004 µM) | 90.1%
